No constants are given. Whether binding was seen depends on the method and setting. In cells and extracts the contact can be indirect. Here binding means that the protein was enriched with, or labelled near, the bait; the list need not be complete. Sequences can lack the tags named with a protein. Each block holds one molecule with its values, some of them ahead of it.
Target: T1, Drosophila Hrd1 fused to a C-terminal TAP tag (Drosophila) (UniProt Q95SP2)
T1 sequence: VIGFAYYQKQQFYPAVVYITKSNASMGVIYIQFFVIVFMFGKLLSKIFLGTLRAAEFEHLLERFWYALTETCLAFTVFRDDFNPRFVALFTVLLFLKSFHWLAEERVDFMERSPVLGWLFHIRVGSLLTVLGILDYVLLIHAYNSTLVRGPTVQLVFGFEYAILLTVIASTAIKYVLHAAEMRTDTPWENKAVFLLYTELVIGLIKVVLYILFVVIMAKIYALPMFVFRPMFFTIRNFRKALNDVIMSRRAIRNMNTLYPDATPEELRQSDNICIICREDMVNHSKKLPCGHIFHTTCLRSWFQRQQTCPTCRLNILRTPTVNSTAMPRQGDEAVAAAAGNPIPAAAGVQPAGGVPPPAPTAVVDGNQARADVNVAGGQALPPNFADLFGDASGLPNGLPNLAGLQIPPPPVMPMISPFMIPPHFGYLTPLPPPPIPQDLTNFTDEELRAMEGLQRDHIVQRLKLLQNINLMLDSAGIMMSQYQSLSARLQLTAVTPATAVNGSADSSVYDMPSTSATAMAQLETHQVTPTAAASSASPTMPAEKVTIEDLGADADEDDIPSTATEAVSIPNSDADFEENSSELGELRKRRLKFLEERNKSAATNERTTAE
Experiment: affinity purification with mass spectrometry; tandem affinity purification of dHrd1-TAP from 1% digitonin lysates of S2/dHrd1-TAP cells: human IgG-Sepharose 16 h at 4°C, TEV elution, anti-FLAG agarose 5 h at 4°C, washes in 0.1% digitonin, elution with FLAG peptide; SDS-PAGE, Colloidal Blue, bands identified by tandem mass spectrometry

Amino acid sequences for entries named in this document (tags omitted).
UniProt Q7KN62: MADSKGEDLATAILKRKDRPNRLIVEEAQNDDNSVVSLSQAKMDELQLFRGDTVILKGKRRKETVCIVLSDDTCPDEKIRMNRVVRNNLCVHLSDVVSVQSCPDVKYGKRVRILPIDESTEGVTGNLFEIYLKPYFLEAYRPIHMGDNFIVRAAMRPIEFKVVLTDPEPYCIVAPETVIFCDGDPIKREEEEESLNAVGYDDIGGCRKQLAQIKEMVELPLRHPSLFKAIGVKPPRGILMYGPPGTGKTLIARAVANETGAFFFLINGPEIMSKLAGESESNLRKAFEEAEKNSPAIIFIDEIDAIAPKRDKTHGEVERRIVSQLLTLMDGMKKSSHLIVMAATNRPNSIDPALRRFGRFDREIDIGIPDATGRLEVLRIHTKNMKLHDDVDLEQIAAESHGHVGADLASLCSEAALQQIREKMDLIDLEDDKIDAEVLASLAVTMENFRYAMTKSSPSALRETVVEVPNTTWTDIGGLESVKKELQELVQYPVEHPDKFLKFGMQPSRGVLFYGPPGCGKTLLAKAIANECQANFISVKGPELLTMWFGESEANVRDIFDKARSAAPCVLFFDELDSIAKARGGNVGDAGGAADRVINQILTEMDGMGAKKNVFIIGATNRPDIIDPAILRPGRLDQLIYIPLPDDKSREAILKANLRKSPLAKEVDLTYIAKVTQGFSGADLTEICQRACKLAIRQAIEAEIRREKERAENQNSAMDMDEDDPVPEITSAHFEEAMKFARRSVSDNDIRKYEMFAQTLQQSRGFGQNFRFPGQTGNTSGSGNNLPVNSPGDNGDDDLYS

- binding: binds
Molecule: DHR23 (Drosophila (endogenous in S2 cells))

- binding: binds
Molecule: RE16341p (Drosophila (endogenous in S2 cells))

- binding: binds
Molecule: Ter94 (from UniProt Q7KN62 1-801)

- binding: binds
Molecule: dHerp (Drosophila (endogenous in S2 cells))

- binding: binds
Molecule: dOs9 (Drosophila (endogenous in S2 cells))

- binding: binds
Molecule: dSel1 (Drosophila (endogenous in S2 cells))

- binding: binds
Molecule: dUbc7 (Drosophila (endogenous in S2 cells)) (enzyme)

- binding: binds
Molecule: dUbiquilin (Drosophila (endogenous in S2 cells))

- binding: binds
Molecule: dUbxd2 (Drosophila (endogenous in S2 cells))

- binding: binds
Molecule: dUbxd8 (Drosophila (endogenous in S2 cells))

- binding: binds
B1: dNpl4 (protein, UniProt Q9VBP9 1-652)
chain: MACAPLLLEQFIYKKRNFAYAFVRHRLFVLCKQSLIRVQSAEGIKRIEISPKSNLKHLYDSVQNALKVDGFGLFKERNFLTELQASGSQLVGTSLRHGDMVYLKQMAGTSSRRTSTTVLDSQAFKTSTISNPNSARPSFNVIEDDVDQALSKADGTIKRERDSKLCHHNANGRCVHCSALEPYDESYLKEHNIKHLSFHSYIRKQTSGMDQGKYFVFDDINCRIKPGCREHPPWPKGICSKCQPSAITLNRQTYRHVDNVMFENTKIVERFLNYWRTTGHQRMGYLYGTYEQHTDVPLGIRAKVAAIYEPPQESTRDSINIQPDEFADDVDAVASALGLKKIGWIFTDLITDDASIGTVKQIRGIESHFITAQECITAGELQNRHPNPCKYASNGVFGSKFVTICVTGDKTKQVHMEGYAVSAQCMALVRDNCLIPTKDAPELGYVRESTDKQYVPDVFYKEKDLYGNEVQRLARPLPVEYLLVDVPASTPLQPIYTFTEYDKRQPFPIENRYIDGHLQDFNALSCYLSAWGEEEFLEAISDFHLLVYLYKMDMLPLRQHMGPLLEAVRTKNPNQAAQFKVVDVWKLLESLIQASSGGSGGTTSYPSGGASASAGASGSEAMDLDANTWTCNHCTFINRGELTSCEICSLPR

- binding: binds
B2: dUfd1 (protein, UniProt Q9VTF9 1-316)
chain: MFHFSGFNMMFPEGRNFHANYKCFSVSMLPGNERTDVEKGGKIIMPPSALDTLTRLNVEYPMLFKLTNVKKSRSSHAGVLEFVADEGKCYLPHWMMENLLLGEGDILNIESVSLPVATFSKFQPHSTDFLDITNPKAVLENALRNFACLTRGDVIAIKYNKKVYELCVLETKPGNAVSIIECDMNVEFEAPVGYKDHSETQASGSGQQGAAGTVGGEIAGATNAILEEVVETFKGSGVRLDGKKKKESQLETPVVKKVLARGVPDYDFQFGLIRFDRNIRPISDRSQEDDAVAGNADASDAESFHGTGFSMKKTRK
